Data on one substance can be found in article PMC11292367.

Results are given in words; binding and its absence hold for the method and conditions named. A result given as binding can be weak or reduced; the word gives no strength.

In this experiment the target is T1, C4BPα1-2 (C4BP fragment composed of the α1 and α2 domains) (human) (UniProt P04003).
T1 sequence: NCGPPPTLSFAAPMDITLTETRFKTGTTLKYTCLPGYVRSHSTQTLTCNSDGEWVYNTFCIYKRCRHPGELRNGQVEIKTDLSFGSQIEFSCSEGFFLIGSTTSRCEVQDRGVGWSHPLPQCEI
As to the kind of experiment: crystal structure; M87^N100 mixed with C4BPα1-2 in equimolar ratio; hanging drop, 20 °C, 0.1 M sodium citrate pH 4.8, 0.2 M KH2PO4, 25% PEG 3350; molecular replacement, 2.7 Å; both purified.

With “M87^N100 (N-terminal 100 amino acids of M87 protein, His6-tag removed) (Streptococcus pyogenes) (domain or fragment)”, the binding result is “binds”.
